For test [1], the target named is T1, membrane melanoma cell adhesion molecule (MCAM), human (human (endogenous in HUVEC and DLD1)) (UniProt P43121).
T1 sequence: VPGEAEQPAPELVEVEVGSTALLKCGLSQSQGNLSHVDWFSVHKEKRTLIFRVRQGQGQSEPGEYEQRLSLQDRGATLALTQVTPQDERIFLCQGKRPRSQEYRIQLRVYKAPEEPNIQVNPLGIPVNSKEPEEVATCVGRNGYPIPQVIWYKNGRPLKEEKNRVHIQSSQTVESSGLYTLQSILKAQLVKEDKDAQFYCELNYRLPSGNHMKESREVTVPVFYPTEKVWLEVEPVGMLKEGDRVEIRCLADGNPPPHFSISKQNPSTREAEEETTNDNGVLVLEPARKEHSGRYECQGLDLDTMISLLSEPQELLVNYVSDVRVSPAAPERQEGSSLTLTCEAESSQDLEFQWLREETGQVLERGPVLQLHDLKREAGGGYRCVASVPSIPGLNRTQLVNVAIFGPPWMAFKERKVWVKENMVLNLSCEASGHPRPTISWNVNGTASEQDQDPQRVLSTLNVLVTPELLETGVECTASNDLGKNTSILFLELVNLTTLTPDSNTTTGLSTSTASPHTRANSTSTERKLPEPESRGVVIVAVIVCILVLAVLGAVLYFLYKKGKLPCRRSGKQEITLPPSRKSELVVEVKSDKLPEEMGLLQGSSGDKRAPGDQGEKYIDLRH
As to the kind of experiment: co-IP; endogenous proteins in whole lysates of human cells (HUVEC, DLD1); NP-40 lysis buffer with protease and phosphatase inhibitors; primary antibody overnight at 4 °C, protein G magnetic beads 2 h at 4 °C, three washes; Western blot.

Amino acid sequences for entries named in this document (tags omitted).
UniProt Q9Y5S8: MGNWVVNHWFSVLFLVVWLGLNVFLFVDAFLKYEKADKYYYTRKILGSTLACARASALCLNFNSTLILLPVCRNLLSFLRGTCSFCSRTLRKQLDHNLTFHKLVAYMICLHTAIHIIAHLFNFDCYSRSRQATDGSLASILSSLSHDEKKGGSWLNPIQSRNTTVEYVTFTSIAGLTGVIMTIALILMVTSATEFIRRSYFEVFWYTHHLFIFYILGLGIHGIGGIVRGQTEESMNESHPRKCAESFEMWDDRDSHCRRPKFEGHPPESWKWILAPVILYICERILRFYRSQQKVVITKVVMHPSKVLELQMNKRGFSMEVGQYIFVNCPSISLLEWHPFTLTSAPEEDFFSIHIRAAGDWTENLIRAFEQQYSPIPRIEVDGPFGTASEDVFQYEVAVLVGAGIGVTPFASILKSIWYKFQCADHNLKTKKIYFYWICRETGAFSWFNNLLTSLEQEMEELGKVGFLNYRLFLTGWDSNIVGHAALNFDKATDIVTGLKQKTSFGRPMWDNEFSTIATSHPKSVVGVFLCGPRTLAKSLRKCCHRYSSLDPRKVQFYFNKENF
UniProt Q8CIZ9: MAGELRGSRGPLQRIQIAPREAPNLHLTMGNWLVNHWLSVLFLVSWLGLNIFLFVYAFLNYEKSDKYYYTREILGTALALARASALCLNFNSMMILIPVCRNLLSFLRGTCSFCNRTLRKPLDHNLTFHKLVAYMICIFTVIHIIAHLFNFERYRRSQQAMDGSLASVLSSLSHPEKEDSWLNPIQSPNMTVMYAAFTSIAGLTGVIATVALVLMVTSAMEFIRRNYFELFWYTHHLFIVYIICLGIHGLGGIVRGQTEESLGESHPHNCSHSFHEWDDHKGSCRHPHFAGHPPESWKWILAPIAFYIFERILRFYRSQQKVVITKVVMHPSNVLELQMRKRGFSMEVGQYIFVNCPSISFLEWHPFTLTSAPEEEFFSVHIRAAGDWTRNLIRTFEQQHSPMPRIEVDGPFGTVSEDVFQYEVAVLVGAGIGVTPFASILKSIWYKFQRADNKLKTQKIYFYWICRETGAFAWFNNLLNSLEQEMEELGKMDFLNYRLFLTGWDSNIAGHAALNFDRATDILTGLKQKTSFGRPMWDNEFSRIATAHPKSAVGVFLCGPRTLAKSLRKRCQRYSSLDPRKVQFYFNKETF

Test [2] concerns the target T2, NOXO1, human (human (endogenous in HUVEC and DLD1)) (UniProt Q8NFA2).
T2 sequence: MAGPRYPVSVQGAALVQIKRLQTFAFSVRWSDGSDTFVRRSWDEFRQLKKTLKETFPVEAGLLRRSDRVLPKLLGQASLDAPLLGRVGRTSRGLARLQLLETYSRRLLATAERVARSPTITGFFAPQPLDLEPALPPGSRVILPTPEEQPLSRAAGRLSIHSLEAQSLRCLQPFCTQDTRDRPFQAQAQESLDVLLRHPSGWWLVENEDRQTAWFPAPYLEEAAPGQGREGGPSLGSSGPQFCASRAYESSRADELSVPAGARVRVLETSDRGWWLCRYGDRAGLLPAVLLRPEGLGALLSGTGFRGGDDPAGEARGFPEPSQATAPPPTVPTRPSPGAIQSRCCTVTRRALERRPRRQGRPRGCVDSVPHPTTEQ
The description is as above.

Test [3] has as its target T3, membrane melanoma cell adhesion molecule (MCAM), mouse (mouse (endogenous in MC38 and B16F10)) (UniProt Q8R2Y2).
T3 sequence: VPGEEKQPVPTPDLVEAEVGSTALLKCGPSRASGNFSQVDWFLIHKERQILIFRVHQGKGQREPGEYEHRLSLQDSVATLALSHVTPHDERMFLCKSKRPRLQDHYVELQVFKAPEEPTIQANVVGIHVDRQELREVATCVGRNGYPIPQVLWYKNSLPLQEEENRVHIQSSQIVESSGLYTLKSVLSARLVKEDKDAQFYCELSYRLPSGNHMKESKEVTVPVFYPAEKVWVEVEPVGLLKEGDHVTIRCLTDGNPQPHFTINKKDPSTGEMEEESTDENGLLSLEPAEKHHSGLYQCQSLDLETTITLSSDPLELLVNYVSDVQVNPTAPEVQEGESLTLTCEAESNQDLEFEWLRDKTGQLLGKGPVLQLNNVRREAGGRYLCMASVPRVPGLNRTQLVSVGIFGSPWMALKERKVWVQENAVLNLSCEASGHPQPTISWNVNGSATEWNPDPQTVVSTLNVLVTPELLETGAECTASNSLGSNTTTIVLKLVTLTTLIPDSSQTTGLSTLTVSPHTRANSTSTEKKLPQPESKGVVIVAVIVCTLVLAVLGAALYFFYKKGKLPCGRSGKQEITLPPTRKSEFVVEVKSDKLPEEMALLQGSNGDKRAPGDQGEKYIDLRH
As to the kind of experiment: co-IP; endogenous proteins in whole lysates of mouse cancer cells (MC38, B16F10); NP-40 lysis buffer with protease and phosphatase inhibitors; primary antibody overnight at 4 °C, protein G magnetic beads 2 h at 4 °C, three washes; Western blot.

Test [4] has as its target NOX1, human (human (endogenous in HUVEC and DLD1)) (UniProt Q9Y5S8). The test can be described thus: co-IP; endogenous proteins in whole lysates of human cells (HUVEC, DLD1); NP-40 lysis buffer with protease and phosphatase inhibitors; primary antibody overnight at 4 °C, protein G magnetic beads 2 h at 4 °C, three washes; Western blot.
The target of test [5] is NOX1, mouse (mouse (endogenous in MC38 and B16F10)) (UniProt Q8CIZ9). As to the kind of experiment: co-IP; endogenous proteins in whole lysates of mouse cancer cells (MC38, B16F10); NP-40 lysis buffer with protease and phosphatase inhibitors; primary antibody overnight at 4 °C, protein G magnetic beads 2 h at 4 °C, three washes; Western blot.

Results are given in words; binding and its absence hold for the method and conditions named. In cells and extracts the contact can be indirect. Some entries that bind do so weakly or less than the wild type.

For the molecule “NOX1, human (from UniProt Q9Y5S8 1-564) (enzyme)”, the binding entry in test [1] and in test [2] was “binds” throughout. With “NOX1, mouse (from UniProt Q8CIZ9 1-591) (enzyme)”, in test [3], the binding result is recorded as “binds”. Turning to “membrane melanoma cell adhesion molecule (MCAM), human (from UniProt P43121 24-646)”, the binding result in test [2] and in test [4] was “binds” in each case.

B1: membrane melanoma cell adhesion molecule (MCAM), mouse (protein, UniProt Q8R2Y2 24-648)
chain: VPGEEKQPVPTPDLVEAEVGSTALLKCGPSRASGNFSQVDWFLIHKERQILIFRVHQGKGQREPGEYEHRLSLQDSVATLALSHVTPHDERMFLCKSKRPRLQDHYVELQVFKAPEEPTIQANVVGIHVDRQELREVATCVGRNGYPIPQVLWYKNSLPLQEEENRVHIQSSQIVESSGLYTLKSVLSARLVKEDKDAQFYCELSYRLPSGNHMKESKEVTVPVFYPAEKVWVEVEPVGLLKEGDHVTIRCLTDGNPQPHFTINKKDPSTGEMEEESTDENGLLSLEPAEKHHSGLYQCQSLDLETTITLSSDPLELLVNYVSDVQVNPTAPEVQEGESLTLTCEAESNQDLEFEWLRDKTGQLLGKGPVLQLNNVRREAGGRYLCMASVPRVPGLNRTQLVSVGIFGSPWMALKERKVWVQENAVLNLSCEASGHPQPTISWNVNGSATEWNPDPQTVVSTLNVLVTPELLETGAECTASNSLGSNTTTIVLKLVTLTTLIPDSSQTTGLSTLTVSPHTRANSTSTEKKLPQPESKGVVIVAVIVCTLVLAVLGAALYFFYKKGKLPCGRSGKQEITLPPTRKSEFVVEVKSDKLPEEMALLQGSNGDKRAPGDQGEKYIDLRH
With B1, the binding entry in test [5] is “binds”.

(Values after PMC10740863.)
